{"source": "paper doi:10.1101/684480", "binders": {"B1": {"name": "V5-tagged SHIP2 (enzyme, UniProt O15357 1-1258)", "chain": "MASACGAPGPGGALGSQAPSWYHRDLSRAAAEELLARAGRDGSFLVRDSESVAGAFALCVLYQKHVHTYRILPDGEDFLAVQTSQGVPVRRFQTLGELIGLYAQPNQGLVCALLLPVEGEREPDPPDDRDASDGEDEKPPLPPRSGSTSISAPTGPSSPLPAPETPTAPAAESAPNGLSTVSHDYLKGSYGLDLEAVRGGASHLPHLTRTLATSCRRLHSEVDKVLSGLEILSKVFDQQSSPMVTRLLQQQNLPQTGEQELESLVLKLSVLKDFLSGIQKKALKALQDMSSTAPPAPQPSTRKAKTIPVQAFEVKLDVTLGDLTKIGKSQKFTLSVDVEGGRLVLLRRQRDSQEDWTTFTHDRIRQLIKSQRVQNKLGVVFEKEKDRTQRKDFIFVSARKREAFCQLLQLMKNKHSKQDEPDMISVFIGTWNMGSVPPPKNVTSWFTSKGLGKTLDEVTVTIPHDIYVFGTQENSVGDREWLDLLRGGLKELTDLDYRPIAMQSLWNIKVAVLVKPEHENRISHVSTSSVKTGIANTLGNKGAVGVSFMFNGTSFGFVNCHLTSGNEKTARRNQNYLDILRLLSLGDRQLNAFDISLRFTHLFWFGDLNYRLDMDIQEILNYISRKEFEPLLRVDQLNLEREKHKVFLRFSEEEISFPPTYRYERGSRDTYAWHKQKPTGVRTNVPSWCDRILWKSYPETHIICNSYGCTDDIVTSDHSPVFGTFEVGVTSQFISKKGLSKTSDQAYIEFESIEAIVKTASRTKFFIEFYSTCLEEYKKSFENDAQSSDNINFLKVQWSSRQLPTLKPILADIEYLQDQHLLLTVKSMDGYESYGECVVALKSMIGSTAQQFLTFLSHRGEETGNIRGSMKVRVPTERLGTRERLYEWISIDKDEAGAKSKAPSVSRGSQEPRSGSRKPAFTEASCPLSRLFEEPEKPPPTGRPPAPPRAAPREEPLTPRLKPEGAPEPEGVAAPPPKNSFNNPAYYVLEGVPHQLLPPEPPSPARAPVPSATKNKVAITVPAPQLGHHRHPRVGEGSSSDEESGGTLPPPDFPPPPLPDSAIFLPPSLDPLPGPVVRGRGGAEARGPPPPKAHPRPPLPPGPSPASTFLGEVASGDDRSCSVLQMAKTLSEVDYAPAGPARSALLPGPLELQPPRGLPSDYGRPLSFPPPRIRESIQEDLAEEAPCLQGGRASGLGEAGMSAWLRAIGLERYEEGLVHNGWDDLEFLSDITEEDLEEAGVQDPAHKRLLLDTLQLSK"}}, "experiment_in_all_cases": "co-IP", "key": {"[1]": {"molecular_target": "BCR-ABL with deleted IDR (human)"}, "[2]": {"molecular_target": "BCR-ABL Y177F (human)"}, "[3]": {"molecular_target": "BCR-ABL with deleted FABD domain (human)"}, "[4]": {"molecular_target": "BCR-ABL with deleted TK domain (human)"}, "[5]": {"molecular_target": "BCR-ABL with deleted SH3 domain (human)"}, "[6]": {"molecular_target": "kinase-dead BCR-ABL (K271H) (human)"}, "[7]": {"molecular_target": "BCR-ABL with deleted SH2 domain (human)"}, "[8]": {"molecular_target": "ΔSH3-SH2-TK-BCR-ABL (human)"}}, "note": "No constants are given. Whether binding was seen depends on the method and setting. In cells and extracts the contact can be indirect. Binding can be weak; no strength is given. Where a sequence is shown, tags or fusion partners need not be part of it."}
{"binder": "B1", "values": [{"measurement": "binding", "setting": "[1]", "value": "binds"}, {"measurement": "binding", "setting": "[2]", "value": "binds"}, {"measurement": "binding", "setting": "[3]", "value": "binds"}, {"measurement": "binding", "setting": "[4]", "value": "binds weakly"}, {"measurement": "binding", "setting": "[5]", "value": "binds"}, {"measurement": "binding", "setting": "[6]", "value": "binds"}, {"measurement": "binding", "setting": "[7]", "value": "binds"}, {"measurement": "binding", "setting": "[8]", "value": "binds"}]}
